# Measured data: PubChem BioAssay AID1259425 (University of Nebraska Medical Center, 2018)
# Assay: 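Compare each knockdown with KSR1 silencing using changes in marker transcripts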 (primary screen)
# Cell system: HCT116 human colon cancer cells
# Knock-down reagent: siRNA pool against human genes, 50 nM siRNA
# Measurement: 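mRNA of six signature genes measured together by branched-DNA assay after 50 nM siRNA pool, blank removed, divided by geometric mean of two housekeeping genes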
# Reading the numbers: BNIP3L mRNA: higher = more BNIP3L transcript after knockdown; NDRG1 mRNA: higher = more NDRG1 transcript after knockdown; BNIP3 mRNA: higher = more BNIP3 transcript after knockdown; ALDOC mRNA: higher = more ALDOC transcript after knockdown; ACSL5 mRNA: higher = more ACSL5 transcript after knockdown
# Here is one part, drawn at random, of about 14,000 reagents tested. Reagents against one gene are numbered here. Reagent sequences are not shown. The record does not give: the time to read-out.
gene symbol,reagent no.,"BNIP3L mRNA, set 1","NDRG1 mRNA, set 1","BNIP3 mRNA, set 1","ALDOC mRNA, set 1","ACSL5 mRNA, set 1"
GNG10 (G protein subunit gamma 10),1,0.0611,0.0868,0.226,0.00889,0.194
GSTA1 (glutathione S-transferase alpha 1),1,0.242,0.481,0.286,0.0404,0.234
PRDX4 (peroxiredoxin 4),1,0.0791,0.134,0.156,0.0137,0.256
PPP2R3B (protein phosphatase 2 regulatory subunit B''beta),1,0.099,0.336,0.205,0.0224,0.216
TNRC6A (trinucleotide repeat containing adaptor 6A),1,0.128,0.148,0.288,0.0555,0.201
OR2W1 (olfactory receptor family 2 subfamily W member 1),1,0.283,0.0714,0.219,0.0321,0.21
MYOZ1 (myozenin 1),1,0.181,0.584,0.308,0.0523,0.274
NRBP2 (nuclear receptor binding protein 2),1,0.167,0.167,0.5,0.0158,0.123
TCF21 (transcription factor 21),1,0.0637,0.149,0.182,0.00638,0.107
"ITPRIP (inositol 1,4,5-trisphosphate receptor interacting protein)",1,0.0974,0.163,0.22,0.0372,0.291
PRKCA (protein kinase C alpha),1,0.197,0.139,0.253,0.00612,0.543
SMC2 (structural maintenance of chromosomes 2),1,0.13,0.355,0.297,0.0415,0.265
KCNE5,1,0.0548,0.208,0.419,0.0216,0.0819
TSPAN9 (tetraspanin 9),1,0.0771,0.195,0.295,0.0596,0.228
TSPAN9 (tetraspanin 9),2,0.107,0.0999,0.334,0.049,0.168
TSBP1 (testis expressed basic protein 1),1,0.169,0.921,0.317,0.0521,0.281
ESRRG (estrogen related receptor gamma),1,0.0816,0.07,0.218,0.0116,0.0904
"ENDOU (endonuclease, poly(U) specific)",1,0.133,0.0835,0.196,0.0153,0.103
CTDSP2 (CTD small phosphatase 2),1,0.127,0.216,0.435,0.0564,0.298
STAU2 (staufen double-stranded RNA binding protein 2),1,0.121,0.524,0.292,0.012,0.356
TMEM59L (transmembrane protein 59 like),1,0.14,0.398,0.443,0.0716,0.443
MED13L (mediator complex subunit 13L),1,0.14,0.158,0.307,0.042,0.118
OGN (osteoglycin),1,0.151,0.25,0.33,0.0209,0.246
CD2 (CD2 molecule),1,0.0898,0.21,0.368,0.0251,0.145
ARPC1A (actin related protein 2/3 complex subunit 1A),1,0.12,0.51,0.311,0.015,0.301
CSNK1G1 (casein kinase 1 gamma 1),1,0.0719,0.175,0.15,0.015,0.179
KIF5B (kinesin family member 5B),1,0.065,0.28,0.279,0.0203,0.271
MGLL (monoglyceride lipase),1,0.107,0.104,0.333,0.0218,0.103
ARHGDIB (Rho GDP dissociation inhibitor beta),1,0.0806,0.0875,0.26,0.0179,0.125
SRCAP (Snf2 related CREBBP activator protein),1,0.12,0.602,0.235,0.041,0.0941
PLRG1 (pleiotropic regulator 1),1,0.0628,0.215,0.18,0.0214,0.118

A portion of the results above, for reference:
gene symbol,reagent no.,"BNIP3L mRNA, set 1","NDRG1 mRNA, set 1","BNIP3 mRNA, set 1","ALDOC mRNA, set 1","ACSL5 mRNA, set 1"
KCNE5,1,0.0548,0.208,0.419,0.0216,0.0819
TSPAN9 (tetraspanin 9),1,0.0771,0.195,0.295,0.0596,0.228
TSPAN9 (tetraspanin 9),2,0.107,0.0999,0.334,0.049,0.168
TSBP1 (testis expressed basic protein 1),1,0.169,0.921,0.317,0.0521,0.281
ESRRG (estrogen related receptor gamma),1,0.0816,0.07,0.218,0.0116,0.0904

More results follow.
gene symbol,reagent no.,"BNIP3L mRNA, set 1","NDRG1 mRNA, set 1","BNIP3 mRNA, set 1","ALDOC mRNA, set 1","ACSL5 mRNA, set 1"
ELAC2 (elaC ribonuclease Z 2),1,0.118,0.192,0.474,0.00422,0.362
PMS2P5,1,0.111,0.222,0.255,0.0396,0.213
KRTAP3-2 (keratin associated protein 3-2),1,0.388,0.625,0.364,0.153,0.559
CSRNP3 (cysteine and serine rich nuclear protein 3),1,0.0861,0.183,0.421,0.0262,0.251
MAP2K5 (mitogen-activated protein kinase kinase 5),1,0.0452,0.0922,0.227,0.00819,0.227
"ABHD3 (abhydrolase domain containing 3, phospholipase)",1,0.103,0.159,0.231,0.00907,0.384
UBA5 (ubiquitin like modifier activating enzyme 5),1,0.106,0.0507,0.15,0.0367,0.216
PCTP (phosphatidylcholine transfer protein),1,0.146,0.559,0.406,0.0346,0.101
HBE1 (hemoglobin subunit epsilon 1),1,0.0301,0.366,0.256,0.0261,0.157
NUAK1 (NUAK family kinase 1),1,0.222,0.0489,0.533,0.0114,0.235
KLRC1 (killer cell lectin like receptor C1),1,0.0877,0.271,0.169,0.0234,0.231
PIGQ (phosphatidylinositol glycan anchor biosynthesis class Q),1,0.0664,0.145,0.205,0.0228,0.119
SPINK4 (serine peptidase inhibitor Kazal type 4),1,0.16,0.105,0.355,0.0392,0.377
ESS2 (ess-2 spliceosome associated protein),1,0.237,0.31,0.454,0.0682,0.431
LHCGR (luteinizing hormone/choriogonadotropin receptor),1,0.116,0.0961,0.247,0.012,0.165
EED (embryonic ectoderm development),1,0.103,0.228,0.297,0.0101,0.2
GABRQ (gamma-aminobutyric acid type A receptor subunit theta),1,0.0563,0.157,0.222,0.0119,0.144
PCDHB10 (protocadherin beta 10),1,0.254,0.281,0.566,0.0161,0.188
LYRM2 (LYR motif containing 2),1,0.16,0.0915,0.211,0.0487,0.1
